Values quoted from earlier work in patent publication US7025979B2, “Male contraceptive formulation comprising norethisterone” (Schering AG, priority 2000, dated 2006).
For at least one compound, name, drawing or mass did not settle the structure.

Test system: spermatogenesis
Conditions: use of the progestin; literature (Merrigiola et al, Bebb et al)

Q: With `C#C[C@]1(O)CC[C@H]2[C@@H]3CCC4=CC(=O)CC[C@@H]4[C@H]3CC[C@@]21CC` [levonorgestrel] as the compound, how does the suppression of spermatogenesis read?
A: Its suppression of spermatogenesis is “ineffective in the suppression of spermatogenesis”.
